Measured values reported in PubChem BioAssay AID493014 (National Center for Advancing Translational Sciences (NCATS), 2011).
Out of some 340,000 compounds screened, about 170 (0.05%) were called active. The inconclusive results got no clear call from the source; some entries with a clear call stand among them for comparison. Calls come from the whole dose curve; as a rule, active = well fitted inhibition curve with a large enough effect in the signal ratio, with a control signal flat (not every such curve was filed as active); inconclusive = small, poorly fitted or top-dose-only effect, or effect the other way, or a change in a side signal; inactive = flat fitted curve, though single readings scatter; the % refers to the signal ratio. Potencies beside an inconclusive call are fits to weak or partial responses and may not hold up.

Assay: qHTS Assay to Find Inhibitors of Chronic Active B-Cell Receptor Signaling;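 for activity change, negative = inhibition: plate controls were basal doxycycline-induced cells for no effect and cells given 10 µM MG132 for full effect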
Conditions: ABC-DLBCL IkBa-CBG/CBR reporter, luminescence ratio (green luciferase fused to IkBa over red control in TMD8 lymphoma cells), 4 h; activity change, negative = inhibition: at 46.1 µM (top of the series)
Outline: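 Doxycycline induced both beetle luciferases in TMD8 lymphoma cells; IKK-driven degradation limits the IkappaBalpha-fused green signal, while red luminescence normalises for cell number and nonspecific effects. Compounds tested up to 46 uM, 4 hrs.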
Potency is the fitted concentration of half-maximal effect.

With `COc1ccc(NC(=O)CN2CCN(S(=O)(=O)N3CCCCCC3)CC2)cc1` as the compound, how does the “activity change, negative = inhibition” value read?
The value was inactive: 2.3%.

Which “activity change, negative = inhibition” value does the source give for `CCOC(=O)c1c(N2C(=O)Nc3ccccc3N2O)sc2c1CCCC2` here?
Its value is inactive: 6.45%.

With `COc1ccc(NC(=O)Cn2c(=O)oc3ccccc32)cc1` as the compound, how does the activity change, negative = inhibition read?
Its activity change, negative = inhibition is inconclusive: -9.15%.

For `C[C@H](CO)N1C[C@H](C)[C@@H](CN(C)Cc2ccncc2)Oc2c(NS(=O)(=O)c3ccccc3)cccc2C1=O`, which activity change, negative = inhibition is on record?
Its activity change, negative = inhibition is inconclusive: 2.43%.

With `CCCCn1nc(C(=O)N2CCN(S(=O)(=O)c3ccccc3)CC2)c2ccccc2c1=O` as the compound, how does the “activity change, negative = inhibition” value read?
Its value is inactive: -6.57%.

Which activity change, negative = inhibition does the source give for `CCCCn1c(N)c(N(CC(C)C)C(=O)CCCc2nc3ccccc3c(=O)[nH]2)c(=O)[nH]c1=O` here?
Its activity change, negative = inhibition is inconclusive: 11.9%.

Which activity change, negative = inhibition does the source give for `Nc1nc(NCCN2CCOCC2)nc(NCc2ccccc2)c1[N+](=O)[O-]` here?
Its activity change, negative = inhibition is inconclusive: -12.6%.

Which activity change, negative = inhibition does the source give for `COc1cc(/C=C2/NC(=O)N(c3cccc(Cl)c3)C2=O)ccc1O` here?
Its activity change, negative = inhibition is inconclusive: 1.1%.

Which “activity change, negative = inhibition” value does the source give for `N#Cc1ccccc1NS(=O)(=O)c1cc2c3c(c1)CCC(=O)N3CCC2` here?
Its value is inactive: -1.05%.

For `CNC(=S)NNC(=O)c1ccc2c(c1)OCO2`, which Potency is on record?
The Potency was inconclusive: 35.5 µM [falling, single point].

Which “activity change, negative = inhibition” value does the source give for `COc1ccc(-n2c(NNC(C)=O)nc3sc4c(c3c2=O)CCCC4)cc1` here?
Its value is inactive: -13.5%.

Which Potency does the source give for `N/C(=N\OC(=O)c1cccc([N+](=O)[O-])c1)c1ccccn1` here?
The Potency was inconclusive: 35.5 µM [falling, single point].

For `CCCCCc1ccc(-c2cn(Cc3ccc(C(=O)c4ccccc4)cc3)nn2)cc1`, which “activity change, negative = inhibition” value is on record?
The value was inactive: -4.11%.

Which Potency does the source give for `CCc1ccc(C(=O)Nc2cccnc2Oc2ccc(Cl)cc2)cc1` here?
The Potency was inconclusive: 14.1 µM [falling, single point].

Which Potency does the source give for `CCC(=O)c1ccc(OCC(=O)N(C)CC(=O)Nc2cccc(F)c2)cc1` here?
The Potency was inconclusive: 0.112 µM [falling, full curve, poor fit].

For `CC(C)(O)CNC(=O)Nc1ccc(Cl)c(Cl)c1`, which activity change, negative = inhibition is on record?
The activity change, negative = inhibition was inconclusive: 8.09%.

Which Potency does the source give for `COc1cc(/C=N/N(C)c2ccccc2)cc(Cl)c1O` here?
Its Potency is inconclusive: 20.6 µM [falling, partial curve].

With `Cc1ccc(NC(=O)CCn2nnc3ccccc32)c(C)c1` as the compound, how does the “activity change, negative = inhibition” value read?
Its value is inactive: -18%.

Which “activity change, negative = inhibition” value does the source give for `CCN(c1ccc(C)cc1C)S(=O)(=O)c1nnc(NC(=O)c2ccco2)s1` here?
The value was inactive: 17.6%.

For `COc1ccc(NC(=O)N(C)C[C@H]2Oc3c(NC(=O)C4CCCCC4)cccc3C(=O)N([C@H](C)CO)C[C@@H]2C)cc1`, which activity change, negative = inhibition is on record?
Its activity change, negative = inhibition is inconclusive: 1.35%.

Which “activity change, negative = inhibition” value does the source give for `O=C(NCc1cccnc1)Nc1cccc(Cl)c1Cl` here?
The value was inactive: 5.56%.

Which Potency does the source give for `O=C(Nc1nnc(-c2ccncc2)o1)c1ccccc1F` here?
Its Potency is inconclusive: 35.5 µM [rising, single point].

For `Cc1ccc(C(=O)NC(=C(Cl)Cl)S(=O)(=O)c2ccc(C)cc2)cc1`, which activity change, negative = inhibition is on record?
Its activity change, negative = inhibition is inconclusive: -0.748%.

With `Cc1ccc2nc(C)cc(Nc3ccc4c(c3)OCCO4)c2c1` as the compound, how does the “activity change, negative = inhibition” value read?
The value was inactive: 0.427%.

For `Cc1cc(NS(=O)(=O)c2ccc(NC(=O)CSc3nc4ncc(Br)cc4[nH]3)cc2)nc(C)n1`, which “activity change, negative = inhibition” value is on record?
The value was inactive: 1.25%.

Which Potency does the source give for `O=C(COC(=O)CCSc1ccc(Cl)cc1)NCCc1ccccc1` here?
The Potency was inconclusive: 11.6 µM [rising, partial curve, poor fit].

Which Potency does the source give for `Cc1[nH]c2ccccc2c1N=Nc1cccc(C(=O)O)c1` here?
The Potency was inconclusive: 2.91 µM [falling, full curve, poor fit].

With `Cn1c(SCC(=O)N2c3ccccc3Sc3ccccc32)nc2ccccc21` as the compound, how does the activity change, negative = inhibition read?
Its activity change, negative = inhibition is inconclusive: -8.62%.

Which activity change, negative = inhibition does the source give for `O=S(=O)(c1ccc(F)cc1)N1CCN(Cc2ccccc2C(F)(F)F)CC1` here?
The activity change, negative = inhibition was inconclusive: 3.1%.

With `CCN(CC)CCCNc1nc2cc(OC)c(OC)cc2c2nc(-c3ccccc3)nn12` as the compound, how does the activity change, negative = inhibition read?
Its activity change, negative = inhibition is inconclusive: 3.56%.

Which activity change, negative = inhibition does the source give for `Cc1cc(C)cc(Nc2cc(=O)n(C3CCCCC3)c(=O)[nH]2)c1` here?
Its activity change, negative = inhibition is inconclusive: 7.5%.

Which “activity change, negative = inhibition” value does the source give for `O=C(Nc1ccccc1Cl)C1CCCN(S(=O)(=O)c2cccc3cccnc23)C1` (stereo not given) here?
The value was inactive: 9.34%.

For `COc1ccccc1NC(=O)c1cc2cc(Br)ccc2cc1O`, which Potency is on record?
The Potency was inconclusive: 22.4 µM [falling, partial curve].

Which activity change, negative = inhibition does the source give for `Nc1nc(N2CCOCC2)nc2ccccc12` here?
The activity change, negative = inhibition was inconclusive: -3.07%.

Which activity change, negative = inhibition does the source give for `COc1ccc(CNC(=O)CC2Sc3ccccc3NC2=O)cc1` (stereo not given) here?
The activity change, negative = inhibition was inconclusive: 2.55%.

Which activity change, negative = inhibition does the source give for `Cc1ccc(NC(=S)N=Nc2c(O)n(C)c3ccc(S(=O)(=O)N4CCOCC4)cc23)cc1C` here?
The activity change, negative = inhibition was inconclusive: 0.833%.

For `Cc1nn(C(C)(C)C)c(NC(=O)c2ccccc2)c1C#N`, which activity change, negative = inhibition is on record?
The activity change, negative = inhibition was inconclusive: 6.58%.

For `CCC1CSC(Nc2ccc(C(=O)/C=C/c3ccc(Oc4ccccc4)cc3)cc2)=N1` (stereo not given), which “activity change, negative = inhibition” value is on record?
Its value is inactive: 0.0382%.

Which “activity change, negative = inhibition” value does the source give for `O=C(NCCCN1CCOCC1)c1cc(-c2ccc(Cl)c(Cl)c2)on1` here?
The value was inactive: -27.4%.

For `CC(C)C(NS(=O)(=O)c1ccccc1)C(=O)N1CCN(C(=O)c2ccco2)CC1` (stereo not given), which “activity change, negative = inhibition” value is on record?
Its value is inactive: 9.03%.
